Assay results: EP4371556B1, “ANGIOTENSIN(1-7) PHARMACEUTICAL COMPOSITIONS FOR INHALATION” (Explicat Pharma GmbH, priority 2022, dated 2026)
Not every detail of the peptide structures is certain; ends, links or a residue may be inferred.

Test system: ACE
Assay: ACE bioassay on nebulised AT1-7 (fluorescence of cleaved probe Abz-FRK-Dnp-P-OH)
Format: biochemical, rabbit
Settings: AT1-7 1.1 µmol/L per well

CC[C@H](C)[C@H](NC(=O)[C@H](Cc1ccc(O)cc1)NC(=O)[C@@H](NC(=O)[C@H](CCCNC(=N)N)NC(=O)[C@@H](N)CC(=O)O)C(C)C)C(=O)N[C@@H](Cc1c[nH]cn1)C(=O)N1CCC[C@H]1C(=O)O [AT1-7, Asp-Arg-Val-Tyr-Ile-His-Pro]
biological activity upon nebulisation (trace 314 vs trace 312) (after nebulisation with M-Neb (3.6 µm mesh)): maintains substantially unaltered its biological activity | competition with the probe for ACE (delay of fluorescence recovery traces 312 and 314 vs 310) (solution stored at 2-8 °C for 4 days, also after nebulisation (M-Neb, 3.6 µm mesh)): effectively competes with the probe for ACE
